The test system of the assay is BDF1 mice, P388 leukemia ip, median survival T/C. Briefly: NCI In Vivo Anticancer Drug Screen. Data for tumor model P388 Leukemia (intraperitoneal) in B6D2F1 (BDF1) mice. To be noted: T/C endpoint: median survival time, higher T/C = longer survival. A digest of the protocol:
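Antitumour effect was judged in vivo: survival in drug-treated mice, normalised to that of vehicle-dosed controls, gives the reported T/C.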

Where [1] appears, read: dose: 400.0 mg/kg/injection, schedule: Q01DX009 (ip), vehicle: saline with Tween-80.
The mark [2] stands for this setting: dose: 200.0 mg/kg/injection, schedule: Q01DX009 (ip), vehicle: saline with Tween-80.

The list does not hold the whole screen: it gathers tests that were run many times, whatever their T/C, doses with no T/C, and many T/C values between a quarter and a half above the control. Other doses and runs of a compound stand elsewhere. T/C gives the treated animals as a percentage of the vehicle group. Some entries give survivors of the animals treated and no T/C: the source files T/C as zero there, which appears to mark a toxic dose or a test without result, not a measured value. Some doses without a T/C left all or most animals alive at the check, yet need not have been tolerated: the source hardly ever lists a survival T/C far under the control, and the zero likely stands for such cases as well. Counts of survivors are from the toxicity check (mostly the fifth day) where no day follows; animals may have died later. Schedules are NCI's codes, taken here to give the interval after Q, in days (D) or hours (H), and the number of doses after X. Some entries were tested several times; their values stand side by side, smallest first. For survival time, this PubChem deposit counts one and a half times the control or more as active, and values a quarter to a half above the control carry no call in these data; other NCI protocols may use other cut-offs. Some T/C values carry the count of animals alive at the toxicity check (mostly the fifth day); where none is given, no animal had died by that day. Counts like (3×) say how often a value occurs here.

`CN(Cc1cnc2nc(N)nc(N)c2n1)c1ccc(C(=O)N[C@@H](CCC(=O)O)C(=O)O)cc1`: the T/C (dose: 0.5 mg/kg/injection, schedule: Q01DX009 (ip), vehicle: sodium bicarbonate) was 147 % of control; the T/C (dose: 1.1 mg/kg/injection, schedule: Q01DX009 (ip), vehicle: sodium bicarbonate, evaluated on day 5) was 138 and 212 % of control; the T/C (dose: 1.1 mg/kg/injection, schedule: Q01DX009 (ip), vehicle: sodium bicarbonate, evaluated on day 60) was 138 and 212 % of control; the T/C (dose: 1.5 mg/kg/injection, schedule: Q01DX009 (ip), vehicle: sodium bicarbonate, evaluated on day 31) was 154 % of control; the T/C (dose: 1.5 mg/kg/injection, schedule: Q01DX009 (ip), vehicle: sodium bicarbonate, evaluated on day 60) is recorded as 198, 208, 217, 250 % of control; the T/C (dose: 1.6 mg/kg/injection, schedule: Q01DX009 (ip), vehicle: sodium bicarbonate, evaluated on day 5) was 186 and 215 % of control. The T/C was 186 and 215 % of control (dose: 1.6 mg/kg/injection, schedule: Q01DX009 (ip), vehicle: sodium bicarbonate, evaluated on day 60); 132 % of control (dose: 2.0 mg/kg/injection, schedule: Q01DX009 (ip), vehicle: sodium bicarbonate, evaluated on day 32); 97 % of control (dose: 2.0 mg/kg/injection, schedule: Q01DX009 (ip), vehicle: sodium bicarbonate, evaluated on day 46); 222, 241, 244 % of control (dose: 2.0 mg/kg/injection, schedule: Q01DX009 (ip), vehicle: sodium bicarbonate, evaluated on day 60); 175 and 296 % of control (dose: 2.4 mg/kg/injection, schedule: Q01DX009 (ip), vehicle: sodium bicarbonate, evaluated on day 5); 175 and 296 % of control (dose: 2.4 mg/kg/injection, schedule: Q01DX009 (ip), vehicle: sodium bicarbonate, evaluated on day 60). In addition, the T/C reads like this: (dose: 6.6 mg/kg/injection, schedule: Q04DX003 (ip), vehicle: sodium bicarbonate, evaluated on day 5) 121, 124, 229, 250 % of control; (dose: 6.6 mg/kg/injection, schedule: Q04DX003 (ip), vehicle: sodium bicarbonate, evaluated on day 60) 121, 124, 229, 231, 250 % of control; (dose: 10.0 mg/kg/injection, schedule: Q04DX003 (ip), vehicle: sodium bicarbonate, evaluated on day 5) 140, 164, 201, 221, 242 % of control; (dose: 10.0 mg/kg/injection, schedule: Q04DX003 (ip), vehicle: sodium bicarbonate, evaluated on day 60) 140, 164, 201, 242, 245 % of control; (dose: 15.0 mg/kg/injection, schedule: Q04DX003 (ip), vehicle: sodium bicarbonate, evaluated on day 5) 137, 141, 224, 247, 250 % of control; (dose: 15.0 mg/kg/injection, schedule: Q04DX003 (ip), vehicle: sodium bicarbonate, evaluated on day 60) 137, 141, 222 [9 of 10 alive], 225, 250 % of control. Further, the T/C reads like this: (dose: 375.0 micrograms/kg/injection, schedule: Q01DX010 (ip), vehicle: other) 158, 170, 212, 213, 245 % of control; (dose: 750.0 micrograms/kg/injection, schedule: Q01DX010 (ip), vehicle: other) 185, 229, 245 (2×), 272 % of control; (dose: 1500.0 micrograms/kg/injection, schedule: Q01DX010 (ip), vehicle: other) 213 [5 of 6 alive], 245, 250, 265, 285 % of control. The survivor count (dose: 4.0 mg/kg/injection, schedule: Q01DX009 (ip), vehicle: sodium bicarbonate) is 6 of 8 and 8 of 8.
Take `CC(C)(C)NC(C1=CC(C)(C)c2ccccc2C1=O)c1ccccc1` (stereo not given): for the setting “dose: 400.0 mg/kg/injection, schedule: Q01DX009 (ip), vehicle: Klucel (hydroxypropylcellulose) (HPC)”, the T/C was 130 % of control.
Take `C(#C[P+]1(c2ccccc2)C=C(c2ccccc2)OC(c2ccccc2)=C1)c1ccccc1`: the survivor count is, setting by setting: (dose: 100.0 mg/kg/injection, schedule: Q01DX005 (ip), vehicle: saline with Tween-80) 3 of 5; (dose: 200.0 mg/kg/injection, schedule: Q01DX005 (ip), vehicle: saline with Tween-80) 0 of 5.
Turning to `O=P(N1CC1)(N1CC1)N1CC2CCC(CC2)C1`, where the note is “dose: 16.5 mg/kg/injection, schedule: Q04DX003 (ip), vehicle: saline”, the T/C was 136 % of control.
Take `CC1(C)N=C(N)N=C(N)N1c1cccc(CCCCc2ccc(S(=O)(=O)F)cc2)c1`: the T/C (dose: 4.12 mg/kg/injection, schedule: Q01DX009 (ip), vehicle: saline) was 130 % of control; the T/C (dose: 6.25 mg/kg/injection, schedule: Q01DX009 (ip), vehicle: saline) was 125 % of control; the T/C (dose: 8.25 mg/kg/injection, schedule: Q01DX009 (ip), vehicle: saline) is 145 % of control; the T/C (dose: 12.5 mg/kg/injection, schedule: Q01DX009 (ip), vehicle: saline) is listed as 129, 136, 145 % of control; the T/C (dose: 18.75 mg/kg/injection, schedule: Q01DX009 (ip), vehicle: saline) was 131 % of control. Also, the survivor count (dose: 25.0 mg/kg/injection, schedule: Q01DX009 (ip), vehicle: saline) is listed as 3 of 6.
Turning to `O=C1NS(=O)(=O)c2ccccc21`, under setting [1], the survivor count is on record as 3 of 6.
For `O=C(Nc1ccc(C2=NCCCN2)cc1)Nc1cccc(C(=O)Nc2ccc(C3=NCCCN3)cc2)c1`, for the setting “dose: 37.5 mg/kg/injection, schedule: Q01DX009 (ip), vehicle: saline with Tween-80”, the survivor count is recorded as 5 of 6.
For `O=C1C=CC(=O)c2cc(Cl)c(Cl)cc21`, where the note is “dose: 6.25 mg/kg/injection, schedule: Q01DX009 (ip), vehicle: saline with Tween-80”, the T/C was 127 % of control.
On to `OCC1CC[N-]CC1.OCC1CC[N-]CC1.[Cl][Pt+2]([Cl])([Cl])[Cl]`, for which the survivor count (dose: 200.0 mg/kg/injection, schedule: Q04DX003 (ip), vehicle: saline) is recorded as 4 of 6.
Turning to `C[C@]12CC[C@@H]3c4ccc(OC(=O)Cc5ccc(N(CCCl)CCCl)cc5)cc4CC[C@H]3[C@@H]1CC[C@@H]2OC(=O)Cc1ccc(N(CCCl)CCCl)cc1`, under setting [2], the survivor count is 6 of 6. In addition, the T/C (dose: 256.0 mg/kg/injection, schedule: Q01DX009 (ip), vehicle: Klucel (hydroxypropylcellulose) (HPC)) is 132 % of control; the T/C (dose: 512.0 mg/kg/injection, schedule: Q01DX009 (ip), vehicle: Klucel (hydroxypropylcellulose) (HPC)) is 142 % of control; the T/C (dose: 600.0 mg/kg/injection, schedule: Q04DX003 (ip), vehicle: saline with Tween-80) is 133 % of control.
With `COC(=O)CN(c1c(C)cc(C)c(N)c1C)S(=O)(=O)c1ccccc1`, the survivor count (dose: 200.0 mg/kg/injection, schedule: Q01DX001 (ip), vehicle: Klucel (hydroxypropylcellulose) (HPC)) is recorded as 6 of 6.
In the case of `CCCCNC(C)C1(O)Cc2c(O)c3c(c(O)c2C(OC2CC(N)C(O)C(C)O2)C1)C(=O)c1c(OC)cccc1C3=O` (stereo not given), the T/C is 146 % of control (dose: 5.0 mg/kg/injection, schedule: Q01DX009 (ip), vehicle: water) and 133 % of control (dose: 80.0 mg/kg/injection, schedule: Q01DX009 (ip), vehicle: water). For the same molecule, where the note is “dose: 160.0 mg/kg/injection, schedule: Q01DX009 (ip), vehicle: water”, the survivor count is listed as 5 of 6.
As to `C=CCC#N`, the survivor count is, setting by setting: (dose: 50.0 mg/kg/injection, schedule: Q01DX009 (ip), vehicle: saline) 2 of 6; (dose: 100.0 mg/kg/injection, schedule: Q04DX003 (ip), vehicle: saline) 6 of 6.
For `O=C1c2ccccc2C(=O)N1CNc1ncccn1`, the survivor count (dose: 50.0 mg/kg/injection, schedule: Q01DX005 (ip), vehicle: saline with Tween-80) was 5 of 5.
Turning to `CCCCCCCC(=O)NCCCC`, for the setting “dose: 200.0 mg/kg/injection, schedule: Q04DX003 (ip), vehicle: Klucel (hydroxypropylcellulose) (HPC)”, the survivor count is reported as 6 of 6.
In the case of `Cc1cccc(NC=O)c1`, the T/C reads like this: (dose: 75.0 mg/kg/injection, schedule: Q01DX009 (ip), vehicle: saline with Tween-80) 136 % of control; (dose: 75.0 mg/kg/injection, schedule: Q01DX009 (ip), vehicle: saline) 126 % of control; (dose: 150.0 mg/kg/injection, schedule: Q01DX009 (ip), vehicle: saline with Tween-80) 127 % of control; (dose: 150.0 mg/kg/injection, schedule: Q01DX009 (ip), vehicle: saline) 126 % of control; (dose: 300.0 mg/kg/injection, schedule: Q01DX009 (ip), vehicle: saline) 126 % of control.
Take `CC1C=CCC(C)(C)C1` (stereo not given): the survivor count under setting [2] was 6 of 6 and the survivor count under setting [1] is 1 of 6.

Values taken from PubChem BioAssay AID328 (DTP/NCI, 2004).
